Source: US20240148824A1
Substitutions are numbered along the chain they refer to. No constants are given. Whether binding was seen depends on the method and setting. Some results given as binding are weak or reduced against the parent protein; the word gives no strength. Each block holds one binder with its values, some of them ahead of it.

The chains behind the UniProt entries cited, without tags or fusion partners. Where a name states a change or a piece, a line headed by the entry shows the natural chain unless it says otherwise.
UniProt Q12884: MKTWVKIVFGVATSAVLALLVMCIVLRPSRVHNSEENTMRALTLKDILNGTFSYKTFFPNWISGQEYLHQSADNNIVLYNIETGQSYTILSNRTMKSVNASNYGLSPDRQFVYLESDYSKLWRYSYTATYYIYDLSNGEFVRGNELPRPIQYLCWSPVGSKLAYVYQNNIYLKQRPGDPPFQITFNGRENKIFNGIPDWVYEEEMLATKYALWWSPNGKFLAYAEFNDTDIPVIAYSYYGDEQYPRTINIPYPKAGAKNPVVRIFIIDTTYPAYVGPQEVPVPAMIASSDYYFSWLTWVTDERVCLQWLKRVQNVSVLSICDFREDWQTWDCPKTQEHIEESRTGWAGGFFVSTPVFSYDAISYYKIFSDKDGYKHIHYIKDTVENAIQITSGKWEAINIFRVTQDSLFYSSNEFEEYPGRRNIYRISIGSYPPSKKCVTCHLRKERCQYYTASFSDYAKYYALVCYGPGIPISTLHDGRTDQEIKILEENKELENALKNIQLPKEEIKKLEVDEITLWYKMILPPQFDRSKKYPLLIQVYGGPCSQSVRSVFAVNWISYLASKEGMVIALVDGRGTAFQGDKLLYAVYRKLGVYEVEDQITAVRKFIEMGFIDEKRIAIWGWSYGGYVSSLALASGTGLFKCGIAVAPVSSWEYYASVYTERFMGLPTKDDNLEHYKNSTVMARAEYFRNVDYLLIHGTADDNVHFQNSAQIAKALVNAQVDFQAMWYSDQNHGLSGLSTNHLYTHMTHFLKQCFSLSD

Molecular target: recombinant His6-tagged extracellular domain of human FAP (human) (UniProt Q12884)
Assay: ELISA, crude periplasmic extracts on coated antigen

- binding: binds
B1: 2HFA62 (VHH)
VHH: QVQLQESGGGLVQAGGSLRLSCAASRSIFSIGTMGWYRQAPGKRRELVAFITVDHNTYYTDSVKGRFTISTENDKNTVYLQMNSLKPEDTAVYYCNRAPPSTDGDRWGQGTQVTVSS

- binding: binds
B2: 2HFA20 (VHH)
VHH: QVQLQESGGGLVQAGGSLRLSCAVSGRLFSANTMGWYRQAPGKRRELVATILSSGSTNYADSVKGRFTISRDDAKNTVYLQMNSLKPEDTAVYYCNLAPPPEGYWGQGTQVTVSS

- binding: binds
B3: 2HFA5 (VHH)
VHH: B2 VHH with A74G, E88D, L97F

- binding: binds
B4: 2HFA12 (VHH)
VHH: QVQLQESGGGLVQAGGSLRLSCAASGSISMLNSMGWYRQALGKQREFVAGITSGGRTNYADSVKGRFAISRDNDKNTVYLQMNSLKPEDTAVYYCNTWPPRIAFDSWGQGTQVTVSS

- binding: binds
B5: 2HFA51 (VHH)
VHH: QVQLQESGGGLVQAGGSLRLSCAVSGIISSMNAMGWYRQAPGKRRELVAGLGSGVSTTYADAVKGRFTISRDNAKNTLYLQMNSLKPEDTAVYYCNRWPPPYDYWGQGTQVTVSS

- binding: binds
B6: 2HFA65 (VHH)
VHH: QVQLQESGGGLVQAGGSLRLSCAASGNIDSIASMGWYRQAPGKQRELVAAISVGGSTYYADSVKGRFTISRDNARNTVYLQTNSLKPEDTAVYYCAARRGSAYYTSRIDWPYWGQGTQVTVSS

- binding: binds
B7: 2HFA50 (VHH)
VHH: QVQLQESGGGLVQAGGSLRLSCVASGTISSGAMGWYRQVPGKQREWVAGITGSRTTMYTESVKGRFTISRDNAENTVFLQMNNLKSEDTAVYYCNLWPPSRPDYWGQGTQVTVSS

- binding: binds
B8: 2HFA23 (VHH)
VHH: QVQLQESGGGLVQAGGSLRLSCAASGRTFSMYAIGWFRQAPGKERELVASISSGGSTNYADSVKGRFTISRDNAEKTVYLQMMSLEPEATGVYYCAARDGSALYTAHSDWDYWGQGTQVTVSS

- binding: binds
B9: 2HFA53 (VHH)
VHH: QVQLQESGGGLVEAEGSLRLSCAASGRAFGSYAMGWFRQAPGLERELVAAISSGGTTYYADSVKGRFTISRDNARNTVYLQTNSLKPEDTAVYYCAARTGGAAYTRRIDWPYWGQGTQVTVSS

- binding: binds
B10: 2HFA55 (VHH)
VHH: B9 VHH with A28T, L43K, T56S, Y58L, R75K, T82M, T99S, A103Y, R106A, I108V

- binding: binds
B11: 2HFA36 (VHH)
VHH: QVQLQESGGGLVQPGDSLRLSCAASERTFSMYAIGWFRQAPGKERELVAGISSGGSTNYADSVKGRFTISRDNPKKTVYLQMMSLEPEDTGVYYCAARSGSAYFSGRYYWNYWGQGTQVTVSS

- binding: binds
B12: 2HFA71 (VHH)
VHH: QVQLQESGGGLVEAEGSLRLSCAASGRTFGSYAMGWFRQAPGKERELVAAISSGGSTLYAGSVKGRFTISKDNAKNTVYLQMNSLKPEDTAVYYCAARSGGAYYTARVDWPYWGQGTQVTVSS

- binding: binds
B13: 2HFA49 (VHH)
VHH: B12 VHH with E13Q, A50G, S56I, L58N, G61H, K71R, N73I, A74D, Y79F, A106S

- binding: binds
B14: 2HFA67 (VHH)
VHH: QVQLQESGGGLVQAGGSLRLSCVVSGSFDSRNAMAWYRQALGKERVWVAGIISDGSTNYADAVKGRFTISRDNDKNTVYLQMNSLKPEDTAVYYCNAWPPRIGLGSWGQGTQVTVSS

- binding: binds
B15: 2HFA10 (VHH)
VHH: QVQLQESGGGLVQAGGSLRLSCTVAESIDVRNAMGWYRQAPGKRREWVATITTGGRTNYADSVKARFTISRDNAKNTVYLQMNSLKPEDTAVYYCNAAPPILNSWGQGTQVTVSS

- binding: binds
B16: 2HFA44 (VHH)
VHH: QVQLQESGGGLVQAGGSLRLSCAASGGFDSRNAMGWYRQAPGKRREWVATITSDGRTNYADSVKARFTISRDNSKNTVYLQMNSLKPEDTAVYYCNAAPPIFGSWGQGTQVTVSS

- binding: binds
B17: 2HFA11 (VHH)
VHH: B16 VHH with G27S, S53T, I69V, S74A, E88D, G103N

- binding: binds
B18: 2HFA52 (VHH)
VHH: B16 VHH with Q13R, G27T, S53T, S74A

- binding: binds
B19: 2HFA4 (VHH)
VHH: B16 VHH with G27S, F28I, S30I, K43T, S53T, S74A, A97L

- binding: binds
B20: 2HFA46 (VHH)
VHH: B16 VHH with G27S, F28I, A33T, S53T, D54G, S74A, A97L, G103N

- binding: binds
B21: 2HFA38 (VHH)
VHH: B16 VHH with Q13R, A14V, A24V, G27S, A33S, D54G, G55S, S74A, N83D, G103N

- binding: binds
B22: 2HFA26 (VHH)
VHH: QVQLQESGGGLVQAGGSLRLSCAASGRTFSTYAMGWFRQAPGKERELVAAISNGGSAYYADSVKGRFTISRDNARNTVYLQTNSLKPEDTAVYYCAARRGSAYYTNRIDWPYWGQGTQVTVSS

- binding: binds
B23: 2HFA6 (VHH)
VHH: B22 VHH with Q13E, G15E, S30G, M34L, G35A, E44S, N53S, A57T, R98K, R99T

- binding: binds
B24: 2HFA25 (VHH)
VHH: B22 VHH with T31S

- binding: binds
B25: 2HFA3 (VHH)
VHH: B22 VHH with Q13E, G15E, A23I, S30G, N53T, A57T, R107H, I108V

- binding: binds
B26: 2HFA7 (VHH)
VHH: B9 VHH with A28T, L43K, E44S, G101S, A103Y, R106N

- binding: binds
B27: 2HFA31 (VHH)
VHH: B9 VHH with A28T, L43K, E44S, L85P, G101S, A103Y, R106N

- binding: binds
B28: 2HFA1 (VHH)
VHH: B22 VHH with Q13E, G15E, A23I, S30G, N53S

- binding: binds
B29: 2HFA24 (VHH)
VHH: QVQLQESGGGLVQAGGSLRLSCAASGSIFSSNAMGWYRQAAGKRRELVAGIRSDGNTNYVDSVKGRFTISRDRAKNTVYLQMTSLKPEDTAVYYCNYWPPPLRQGGDYAYWGQGTQVTVSS

- binding: binds
B30: 2HFA14 (VHH)
VHH: QVQLQESGGGLVQAGDSLRLSCAASGRTFSSYVMGWFRQVPGKQRELVAAITSGLSTYYADSLKGRFTISRDNAKNTMYLQMNSLKLEDTAVYYCAAREGGGIWTSSTQYDYWGQGTQVTVSS

- binding: binds
B31: 2HFA29 (VHH)
VHH: QVQLQESGGGLVQAGGSLRLSCAASGTMSSINAMGWYRQAPGKQRELVAGILSDGTTKYVESVKGRFTISRDNAKNTVHLQMNSLKVEDTAVYYCNFFPPPVPASWGQGTQVTVSS

- binding: binds
B32: 2HFA43 (VHH)
VHH: QVQLQESGGGLVQAGGSLRLSCVASGTIFSSGAMAMGWYRQAPGKQREWVAGITGSRTTTYADSVKGRFTISRDNAENTVFLQMNNLKSEDTAVYYCNLWPPSRPDHWGQGTQVTVSS

- binding: binds
B33: 2HFA9 (VHH)
VHH: QVQLQESGGGLVEAEGSLRLSCAASGRTFGSYAMGWFRQAAGKERELVAAISAGGSTLYADNVKGRFTISRDNARNTVYLLSNSLKPEDTAVYYCAARRGSAYYTNHIDWPYWGQGTQVTVSS

- binding: binds
B34: 2HFA73 (VHH)
VHH: B33 VHH with E13Q, A14P, E15G
